Reference: PMC12172431
Results are given in words; binding and its absence hold for the method and conditions named. Binding seen in cells or lysates may run through a third protein.

Target: Flag-tagged EXON0 (AcMNPV)
Experiment: co-IP; Sf9 cells infected with vAcWT^Ac66Flag or vAcWT^EXON0Flag (MOI 5), 48 h p.i.; lysate on Flag-conjugated magnetic beads, or anti-Ac51 antibody with protein A/G agarose, 4°C overnight; IgG control; western blot

B1: Ac51 (protein, UniProt P41455 1-318)
chain: MSKRVRERSVVSDETAKRIRQNEHCHAKNESFLGFCNLEEIDYYQCLKMQYVPDQKFDNDFILTVYRMANVVTKQVRPYNSIDEKHHYNTVRNVLILIKNARLVLSNSVKKQYYDDVLKLKKNTDLESYDPLITVFLQIGESVNEEIQKLRKALVNIFTNKPDKSDINNPDVVSYQFIFGRVQKLYNRAIKQKTKTIIVKRPTTMNRIQIDWKTLSEDEQKMTRQEIAEKIVKPCFEQFGTILHIYVCPLKHNRIIVEYANSESVQKAMTVNDDTRFTVTEFSVVQYYNVAKTEMVNQRIDIISKDIEDLRNALKSYT
binding: no binding
